Results reported in publication PMC6002723.
No constants are given. Whether binding was seen depends on the method and setting. Binding seen in cells or lysates may run through a third protein. Some results given as binding are weak or reduced against the parent protein; the word gives no strength.

By UniProt entry, the sequences of proteins in these tests, tags left out. Residues count along the entry.
UniProt P10415: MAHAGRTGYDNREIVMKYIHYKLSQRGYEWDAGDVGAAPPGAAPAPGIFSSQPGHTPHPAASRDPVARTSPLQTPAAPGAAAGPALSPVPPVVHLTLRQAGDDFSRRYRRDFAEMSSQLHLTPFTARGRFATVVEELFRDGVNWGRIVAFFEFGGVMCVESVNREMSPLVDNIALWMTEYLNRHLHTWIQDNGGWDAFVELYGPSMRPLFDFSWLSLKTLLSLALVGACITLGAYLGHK
UniProt Q14790, residues 1-355: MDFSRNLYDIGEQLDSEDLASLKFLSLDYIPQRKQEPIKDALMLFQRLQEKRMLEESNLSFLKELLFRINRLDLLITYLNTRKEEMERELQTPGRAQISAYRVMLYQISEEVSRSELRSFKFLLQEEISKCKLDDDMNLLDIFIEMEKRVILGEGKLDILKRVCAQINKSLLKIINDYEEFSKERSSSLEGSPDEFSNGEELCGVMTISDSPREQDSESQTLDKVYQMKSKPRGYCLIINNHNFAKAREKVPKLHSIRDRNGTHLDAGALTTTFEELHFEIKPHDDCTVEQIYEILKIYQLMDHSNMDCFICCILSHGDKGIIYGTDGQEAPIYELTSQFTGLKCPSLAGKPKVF

Target: Bcl2 (UniProt P10415)
Experiment: co-IP; 293T cells cotransfected with Bcl-2 and HA-Casp8p41; extracts treated with the DUB Trabid, YOD1 or USP2 with or without NEM; immunoprecipitated with anti-Bcl2 or anti-HA, immunoblotted for HA

With “HA-Casp8p41 (from UniProt Q14790 1-355) (domain or fragment)” the binding was “binds”.
